Like-named read-outs stand apart in the source and are kept apart here. Structures were worked out from names or drawings and are uncertain.

The target of this assay is Rho Kinase. Description: ROCK kinase inhibition assay (Rho Kinase Activity, isoform not given). It counts as biochemical.
The mark [1] stands for this setting: read-out: Rho Kinase Activity, Table 15, mostly given as ranges, tested form: 2HCl.

For the molecule `O=C(Nc1ccc2cnccc2c1)[C@@H]1C[C@H]1c1ccc(S(=O)(=O)NC[C@H]2CCCNC2)cc1`, under setting [1], the Ki lay within 2 to 4.5 nM.

Take `O=C(Nc1ccc2cnccc2c1)[C@@H]1C[C@H]1c1ccc(S(=O)(=O)NC2CCNCC2)cc1` (relative stereo): the Ki under setting [1] was in the range of 5 to 9.5 nM.

For `O=C(Nc1ccc2cnccc2c1)[C@@H]1C[C@H]1c1ccc(S(=O)(=O)NCc2cccnc2)cc1` (relative stereo), the Ki (read-out: Rho Kinase Activity, Table 15, mostly given as ranges) lay within 8 to 35 nM.

The values are drawn from patent US10858339B2, “Aryl cyclopropyl-amino-isoquinolinyl amide compounds” (priority 2017, dated 2020).
